The target in this assay is T1, SUMOylated MORC2 (WT Flag-MORC2 co-expressed with GFP-SUMOs in HEK293T cells) (human) (UniProt Q9Y6X9).
T1 sequence (chain, SUMO (GFP-SUMO1, GFP-SUMO2, GFP-SUMO3 co-expressed) conjugated at lysine 767): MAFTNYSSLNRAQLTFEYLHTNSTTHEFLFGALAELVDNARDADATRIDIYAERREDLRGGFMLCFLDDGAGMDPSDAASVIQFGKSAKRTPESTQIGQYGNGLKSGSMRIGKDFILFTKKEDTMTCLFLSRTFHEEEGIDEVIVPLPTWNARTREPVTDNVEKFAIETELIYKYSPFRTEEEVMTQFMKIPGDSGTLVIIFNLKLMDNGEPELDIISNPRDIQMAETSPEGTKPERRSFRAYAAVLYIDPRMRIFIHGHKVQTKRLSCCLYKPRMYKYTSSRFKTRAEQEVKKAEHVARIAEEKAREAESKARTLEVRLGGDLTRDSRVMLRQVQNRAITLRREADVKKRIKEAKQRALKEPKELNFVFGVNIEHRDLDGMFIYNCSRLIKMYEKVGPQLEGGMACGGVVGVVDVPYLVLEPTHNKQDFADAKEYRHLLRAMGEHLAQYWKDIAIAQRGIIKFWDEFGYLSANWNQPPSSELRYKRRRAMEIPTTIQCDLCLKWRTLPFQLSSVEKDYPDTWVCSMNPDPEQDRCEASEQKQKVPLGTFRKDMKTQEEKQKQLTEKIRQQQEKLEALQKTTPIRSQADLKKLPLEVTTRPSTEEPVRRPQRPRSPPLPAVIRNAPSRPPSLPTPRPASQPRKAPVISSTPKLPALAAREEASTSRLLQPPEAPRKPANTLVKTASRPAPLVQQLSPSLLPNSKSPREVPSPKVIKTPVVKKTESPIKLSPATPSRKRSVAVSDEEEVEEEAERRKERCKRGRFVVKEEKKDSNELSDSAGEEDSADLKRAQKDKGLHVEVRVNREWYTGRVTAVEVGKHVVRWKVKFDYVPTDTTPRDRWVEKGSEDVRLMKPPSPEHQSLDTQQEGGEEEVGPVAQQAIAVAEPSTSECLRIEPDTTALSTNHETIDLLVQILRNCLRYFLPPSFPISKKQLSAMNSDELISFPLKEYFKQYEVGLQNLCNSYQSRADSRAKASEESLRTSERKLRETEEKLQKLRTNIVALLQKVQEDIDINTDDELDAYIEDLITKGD
Nature of the assay: affinity purification with mass spectrometry; HEK293T cells transfected with WT-MORC2 and GFP-SUMOs; anti-Flag beads; SDS-PAGE, LC-MS/MS; proteins found in the pCDH control taken as nonspecific.

By UniProt entry, the sequences of proteins in these tests, tags left out.
UniProt P68400: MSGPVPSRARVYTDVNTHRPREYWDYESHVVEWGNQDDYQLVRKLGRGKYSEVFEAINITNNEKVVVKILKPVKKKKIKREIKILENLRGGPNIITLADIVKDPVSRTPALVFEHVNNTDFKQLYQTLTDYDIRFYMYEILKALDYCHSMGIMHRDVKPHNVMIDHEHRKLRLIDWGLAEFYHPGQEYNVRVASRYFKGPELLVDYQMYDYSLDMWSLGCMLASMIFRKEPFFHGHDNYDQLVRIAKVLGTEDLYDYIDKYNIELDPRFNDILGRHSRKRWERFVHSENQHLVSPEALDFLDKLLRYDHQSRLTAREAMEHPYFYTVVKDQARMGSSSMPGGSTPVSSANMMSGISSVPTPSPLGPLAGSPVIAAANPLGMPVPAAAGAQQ
UniProt P13010: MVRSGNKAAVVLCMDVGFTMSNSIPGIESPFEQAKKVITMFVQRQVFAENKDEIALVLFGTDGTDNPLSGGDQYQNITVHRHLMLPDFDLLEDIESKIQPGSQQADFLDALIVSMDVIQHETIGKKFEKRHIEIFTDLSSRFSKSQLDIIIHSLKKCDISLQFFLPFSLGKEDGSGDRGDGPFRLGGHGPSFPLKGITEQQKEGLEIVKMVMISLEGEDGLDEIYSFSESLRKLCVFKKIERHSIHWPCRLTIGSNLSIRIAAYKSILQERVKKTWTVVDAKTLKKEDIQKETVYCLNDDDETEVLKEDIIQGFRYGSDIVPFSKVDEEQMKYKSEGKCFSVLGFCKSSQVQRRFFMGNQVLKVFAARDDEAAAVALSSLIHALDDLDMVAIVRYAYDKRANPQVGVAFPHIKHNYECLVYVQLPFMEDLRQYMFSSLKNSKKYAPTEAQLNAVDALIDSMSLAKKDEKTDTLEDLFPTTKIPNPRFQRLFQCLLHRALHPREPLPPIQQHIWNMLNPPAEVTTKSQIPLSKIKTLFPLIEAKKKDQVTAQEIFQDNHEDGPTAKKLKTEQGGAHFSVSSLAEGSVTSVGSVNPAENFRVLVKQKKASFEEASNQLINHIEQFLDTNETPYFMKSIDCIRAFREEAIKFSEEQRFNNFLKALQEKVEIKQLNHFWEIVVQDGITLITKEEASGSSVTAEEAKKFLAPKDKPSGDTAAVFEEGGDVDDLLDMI
UniProt Q14839: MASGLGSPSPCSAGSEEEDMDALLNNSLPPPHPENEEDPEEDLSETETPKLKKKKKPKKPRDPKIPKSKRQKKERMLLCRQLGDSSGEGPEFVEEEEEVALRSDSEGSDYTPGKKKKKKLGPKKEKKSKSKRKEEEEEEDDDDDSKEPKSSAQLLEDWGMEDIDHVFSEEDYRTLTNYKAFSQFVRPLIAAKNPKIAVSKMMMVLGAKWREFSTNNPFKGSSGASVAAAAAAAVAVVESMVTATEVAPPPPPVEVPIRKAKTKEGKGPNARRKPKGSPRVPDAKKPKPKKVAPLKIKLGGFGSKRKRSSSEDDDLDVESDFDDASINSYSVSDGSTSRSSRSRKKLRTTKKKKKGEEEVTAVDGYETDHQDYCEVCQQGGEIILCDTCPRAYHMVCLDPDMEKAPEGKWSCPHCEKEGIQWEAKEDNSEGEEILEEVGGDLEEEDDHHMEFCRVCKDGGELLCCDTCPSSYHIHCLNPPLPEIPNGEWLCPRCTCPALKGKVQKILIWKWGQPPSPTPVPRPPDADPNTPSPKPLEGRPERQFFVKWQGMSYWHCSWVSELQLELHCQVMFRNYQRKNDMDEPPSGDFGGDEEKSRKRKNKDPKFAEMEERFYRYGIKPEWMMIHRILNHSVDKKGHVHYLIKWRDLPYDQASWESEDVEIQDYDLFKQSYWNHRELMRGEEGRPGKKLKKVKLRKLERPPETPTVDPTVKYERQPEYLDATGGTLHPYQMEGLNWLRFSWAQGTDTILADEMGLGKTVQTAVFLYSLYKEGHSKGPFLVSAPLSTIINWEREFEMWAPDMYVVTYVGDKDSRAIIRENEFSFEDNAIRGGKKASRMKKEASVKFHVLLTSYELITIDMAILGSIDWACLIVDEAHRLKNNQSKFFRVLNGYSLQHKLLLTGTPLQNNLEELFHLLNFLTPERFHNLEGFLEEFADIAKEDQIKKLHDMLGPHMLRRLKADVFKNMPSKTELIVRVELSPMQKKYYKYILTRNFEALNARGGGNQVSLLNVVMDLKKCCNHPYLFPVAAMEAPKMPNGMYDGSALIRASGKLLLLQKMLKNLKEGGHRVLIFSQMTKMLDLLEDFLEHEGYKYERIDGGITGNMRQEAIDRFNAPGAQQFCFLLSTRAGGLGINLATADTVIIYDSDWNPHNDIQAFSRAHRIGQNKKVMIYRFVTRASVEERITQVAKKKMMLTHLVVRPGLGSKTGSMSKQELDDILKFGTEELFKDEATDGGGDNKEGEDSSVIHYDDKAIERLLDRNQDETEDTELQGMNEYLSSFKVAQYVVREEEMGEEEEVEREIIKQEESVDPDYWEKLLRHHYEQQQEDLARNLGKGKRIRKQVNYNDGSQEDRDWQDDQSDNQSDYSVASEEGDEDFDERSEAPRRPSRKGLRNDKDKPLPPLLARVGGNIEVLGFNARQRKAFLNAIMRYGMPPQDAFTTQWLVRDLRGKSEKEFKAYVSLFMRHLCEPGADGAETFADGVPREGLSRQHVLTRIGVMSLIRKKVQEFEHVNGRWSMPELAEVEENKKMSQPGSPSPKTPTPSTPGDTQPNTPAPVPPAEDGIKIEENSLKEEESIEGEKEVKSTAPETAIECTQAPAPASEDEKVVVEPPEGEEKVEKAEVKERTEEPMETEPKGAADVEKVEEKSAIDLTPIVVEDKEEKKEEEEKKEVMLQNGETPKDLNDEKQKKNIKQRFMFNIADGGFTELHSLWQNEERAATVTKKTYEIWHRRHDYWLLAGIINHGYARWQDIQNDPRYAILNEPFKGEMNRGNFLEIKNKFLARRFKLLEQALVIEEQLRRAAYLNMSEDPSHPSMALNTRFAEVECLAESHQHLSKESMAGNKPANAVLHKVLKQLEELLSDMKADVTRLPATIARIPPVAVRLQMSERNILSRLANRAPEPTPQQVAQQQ

Results are given in words; binding and its absence hold for the method and conditions named. In cells and extracts the contact can be indirect. These calls come from enrichment with a bait or labelling near it, and not all partners need be listed. Where a sequence is shown, tags or fusion partners need not be part of it.

In the case of “endogenous CSK21 (casein kinase II subunit alpha) (from UniProt P68400 1-391) (enzyme)”, the binding result is given as “binds”.
On to “endogenous XRCC5 (X-ray repair cross complementing 5) (from UniProt P13010 1-732)”, for which the binding entry is “binds”.
Turning to “endogenous CHD4 (chromodomain helicase DNA binding protein 4) (from UniProt Q14839 1-1912) (enzyme)”, the binding entry was “binds”.

For the origin of these results see paper PMC9925317.
